Data as given in PubChem BioAssay AID1259323 (Peter MacCallum Cancer Centre, 2017)

Purpose: 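Kinase siRNA screen linking the PAR2 receptor to the TRPV4 channel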 (primary screen)
Cell system: human HEK293 cells stably carrying inducible TRPV4
Knock-down reagent: siRNA pool against human genes
Treatment: PAR2 activation; agonist identity and dose not given
Detection: 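Real-time Fura-2 calcium after PAR2 activation; early peak and later plateau each as % of mock-transfected wells on the plate, mean of two plates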
Reading the numbers: TRPV4 plateau calcium, % of mock: higher = stronger sustained TRPV4 calcium entry than mock; PAR2 peak calcium, % of mock: higher = stronger early PAR2 calcium response than mock
Hit rule: 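Active if plateau calcium is under 90% of mock and early peak calcium stays over 79% of mock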
This is an unselected part of 715 reagents. 91 of them (13%) were called active. 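Active pools lower the sustained TRPV4 phase but spare the early PAR2 peak; PAR2 agonist and dose are not stated; pools repeat across wells.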 The record does not give: the amount of reagent, the time to read-out.

gene symbol	TRPV4 plateau calcium, % of mock	PAR2 peak calcium, % of mock	call
PAK3	96.6	97.8	inactive
WNK2	115	104	inactive
ATP23	92.3	94.5	inactive
IPMK	103	100	inactive
AK3	91.4	95.8	inactive
NEK10	107	104	inactive
GOLGA5	109	105	inactive
CDC42BPA	103	100	inactive
MYLK2	96.6	93.6	inactive
FGFR1	102	96.6	inactive
IP6K2	88.8	95.9	active
PANK4	103	98.7	inactive
CDK5R1	113	102	inactive
EPHA8	95.5	97.5	inactive
TPD52L3	95.8	96.2	inactive
NEK9	106	98.2	inactive
PRKCH	106	98.5	inactive
PHKB	100	103	inactive
AURKC	117	107	inactive
STK4	100	101	inactive
CIB2	101	95.7	inactive
TP53RK	104	102	inactive
MAST1	86.4	91.7	active
GUCY2D	74.5	75.5	inactive
PIK3CG	93.6	101	inactive
CSNK1D	90.3	89	inactive
MAPK3	103	102	inactive
TTBK1	109	102	inactive
CIT	121	109	inactive
ERN1	101	98.9	inactive
MAP3K14	93.9	93.4	inactive
STKLD1	91.1	94.5	inactive
DYRK1A	93.2	97.1	inactive
FES	94.6	95.3	inactive

A stretch of the results above, for reference:
gene symbol	TRPV4 plateau calcium, % of mock	PAR2 peak calcium, % of mock	call
AURKC	117	107	inactive
STK4	100	101	inactive
CIB2	101	95.7	inactive
TP53RK	104	102	inactive
MAST1	86.4	91.7	active
GUCY2D	74.5	75.5	inactive
